The other results are listed elsewhere or left out. These are raw signals, not scaled to a control.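 First-pass screen: polymyxin B was added at a level that permeabilizes the Salmonella outer membrane while sparing the inner membrane. DMSO wells, with and without polymyxin B, defined maximum growth. Because plates differed from one another, each plate's data were ranked separately and the compounds with the lowest OD600 were carried forward as hits.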
System: Salmonella enterica serovar Typhimurium SL1344
Assay: bacterial growth OD600 after 18 h with compound and polymyxin B; higher = more bacterial growth (less inhibition)
Conditions: 50 µM, Mueller-Hinton broth

SMILES	bacterial growth OD600 (polymyxin B 0.75 µg/mL)	bacterial growth OD600 (polymyxin B 1 µg/mL)
O=C(CCc1c[nH]c2ccccc12)NCCN1Cc2ccccc2OC(c2ccccc2)C1 (stereo unspecified)	0.785	
CN(Cc1cccc2cnccc12)C(=O)Cn1nnnc1CN1CCCC1	0.871	
CCOC(=O)CC1CCCCN1Cc1nc(-c2cccc(OC)c2OC)oc1C (stereo unspecified)	0.786	
COC(=O)[C@@H](NC1CCN(c2ccc(NC(=O)COc3ccccc3)cc2)CC1)c1ccccc1	0.76	
COc1cc(CC2(CCC(=O)NCC3CCCCC3)CCC(=O)N2)ccc1F (stereo unspecified)	0.848	
Cc1cc(CN(C)CC2(O)CCCN(Cc3cccc(F)c3F)C2=O)on1 (stereo unspecified)		0.878
OC(COc1cccc(CNC2CCCC2)c1)CN1CCCCCC1 (stereo unspecified)	0.877	
CS(=O)(=O)N1CCC(Oc2ccc(C(=O)N3CCCCCC3)cc2Cl)CC1	0.788	
CO[C@H]1[C@H](NC(=O)c2ccncc2)c2ccccc2C12CCN(C(=O)CCn1nc(C)cc1C)CC2	0.836	
CCc1ccc(CN2CCN(Cc3cc(OC)cc(OC)c3)C(CCO)C2)cc1 (stereo unspecified)		1.05
CCOC(=O)C1(CCCc2ccccc2)CCN(C(=O)CCN2CCCCO2)CC1		1.02
CCOC(=O)C1(CCc2ccccc2)CCN(C(=O)CCc2ccncc2)CC1		0.705
O=C(CC(c1cccc(O)c1)c1cccc(Cl)c1)NC1CC1 (stereo unspecified)		1.17
CCOC(=O)N1CCN(C2CCCN(Cc3cccn3-c3nccs3)C2)CC1 (stereo unspecified)		1.01
COc1ccccc1C(=O)Nc1cccc(N2CCC(NC(C)c3cnn(-c4ccccc4)c3)CC2)c1 (stereo unspecified)	0.838	
Cc1ncoc1C(=O)NC1CC(C)(C)Cc2c1cnn2-c1ccc(F)cc1 (stereo unspecified)		0.976

2 compounds picked at random from the list so far:
SMILES	bacterial growth OD600 (polymyxin B 0.75 µg/mL)	bacterial growth OD600 (polymyxin B 1 µg/mL)
OC(COc1cccc(CNC2CCCC2)c1)CN1CCCCCC1 (stereo unspecified)	0.877	
CCc1ccc(CN2CCN(Cc3cc(OC)cc(OC)c3)C(CCO)C2)cc1 (stereo unspecified)		1.05

The results go on.

SMILES	bacterial growth OD600 (polymyxin B 0.75 µg/mL)	bacterial growth OD600 (polymyxin B 1 µg/mL)
O=C1NCCN1c1ccc(CN2CCCC(CO)(Cc3ccc(F)cc3)C2)cc1 (stereo unspecified)	0.849	
CCc1nnc(SCC(=O)N2CCCC(C(=O)c3ccc4c5c(cccc35)CC4)C2)o1 (stereo unspecified)		0.021
COc1ccccc1C(=O)Nc1cccc(N2CCC(NCc3ccc(Cl)s3)CC2)c1	0.708	
O=C(c1ccccc1OC1CCN(Cc2ccccc2Cl)CC1)N1CCCCC1		1.06
C=CCS(=O)(=O)N1C[C@H]2OC(=O)N(CCc3ccc(F)cc3)[C@H]2C1	0.764	
O=C(c1scc2c1OCCO2)N1CCc2onc(-c3cccc(F)c3)c2C1	0.447	
Cc1cccc(-n2cc(CNCC3COCCO3)c(-c3cccc(F)c3)n2)c1 (stereo unspecified)		0.865
O=C1O[C@@H]2CN(Cc3ccccc3)C[C@@H]2N1C1CCCC1	0.736	
CN(CCc1nc2ccccc2[nH]1)C(=O)c1cc(COc2cccc(F)c2)[nH]n1		1.02
CN(C)C(=O)CCC(=O)N1CCCC(C(=O)c2ccc3c4c(cccc24)CC3)C1 (stereo unspecified)	0.498	
C#Cc1cccc(C(=O)N2CCOC(CCc3ccccc3)C2)c1 (stereo unspecified)	0.002	
CCCCN(Cc1ccccc1)C(=O)CCC1(Cc2ccc(SC)cc2)CCC(=O)N1 (stereo unspecified)	0.019	
CCN(CC)C(=O)C1CCCN(C2CCN(C(=O)C3CC3)CC2)C1 (stereo unspecified)	0.956	
Cc1nn(C)cc1CN(C)C(=O)CC1(c2ccccc2)CC(=O)N(Cc2cccs2)C1=O (stereo unspecified)	0.852	
COc1ccc(CNC(=O)CCC2CCCN(Cc3cccc(F)c3F)C2)c(OC)c1 (stereo unspecified)		0.824

From the supplement of paper PMC12889115
